The supplement of paper PMC3334620
The full ranking holds about 33,000 sequences; the median of “E-score (-0.5 to 0.5)” is about -0.0059, and the highest 2% start at about 0.26. Some of the results follow.

The sequences below were run against T1, Cin5 (UniProt P40917) (assay: PBM E-score (8-mer binding enrichment) (E-score (-0.5 to 0.5)); higher = stronger / more preferred TF binding). Settings: protein concentration: 100 nM; construct: GST-full length.
T1 sequence: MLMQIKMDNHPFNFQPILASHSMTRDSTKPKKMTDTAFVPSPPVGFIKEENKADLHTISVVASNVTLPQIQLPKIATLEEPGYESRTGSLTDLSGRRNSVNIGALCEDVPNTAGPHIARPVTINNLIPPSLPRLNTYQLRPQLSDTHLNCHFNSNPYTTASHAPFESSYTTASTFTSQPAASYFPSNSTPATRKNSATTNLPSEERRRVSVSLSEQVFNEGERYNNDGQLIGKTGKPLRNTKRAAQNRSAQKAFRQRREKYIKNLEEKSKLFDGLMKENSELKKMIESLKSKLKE
Outline: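 Yeast transcription factors carrying a GST tag, as full-length proteins or DNA-binding domains, were produced by PURExpress in vitro transcription/translation. About 100-200 nM protein was applied to universal all-10-mer Agilent arrays, double-stranded by primer extension on fresh or once-stripped slides. Bound protein was detected with fluorescent anti-GST, and scans were normalised with masliner. The Universal PBM Analysis Suite gave each ungapped eight-base word, pooled with its reverse complement, an E-score, a modified Wilcoxon-Mann-Whitney statistic.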

Sequence	PBM E-score
AGACGTTG	0.0953
AGTAGTTC	0.212
AGGGTTGC	-0.11
CAAGCGCC	-0.291
CACAGGAC	-0.063
AAATCGAT	0.113
ACTTTAGG	-0.0843
ACCTAGAG	-0.18
GTCGGGCA	-0.173
CCAGCCAC	-0.119
GAGCCTAC	-0.0572
ATGAAACG	0.131
CCCCGTAA	0.0337
ATTATTGA	0.111
GAAAAGTC	-0.00316
AAGAGAGG	-0.0598
AAATGTTG	-0.147
TACATGGA	0.0282
AGAATGCT	0.127
GTCCGGGA	0.0245
ATAATTCC	0.211
ACCTACCC	0.0263
CCAATATC	0.191
ATCTCACA	0.0525
TGCGAAAA	0.0168

Sequence	PBM E-score
CCTCACGA	-0.151
AGCAAAGC	-0.0675
TAACATTA	0.117
CACTTCGG	0.0931
GGTTCTCA	0.0519
ATTATATG	0.249
AGTGGCAG	0.0428
CCCCGTAG	-0.0236
CTCAATGA	0.0432
CGTGCGAC	-0.205
TAGGACCA	-0.152
CATCCAAA	0.0456
ACGTGTGA	-0.138
ATCGCGTA	0.11
AACTCTTC	-0.158
TAAACGTA	0.114
ATAACGCC	0.0372
ACTGTTCG	-0.116
AACCGGTG	-0.184
CTATCCCA	-0.0461
ACCTATGG	-0.112
GAGAAACC	-0.0722
CCTCCTTA	-0.196
AGTAATTA	0.252
AGACGAGG	-0.0995

Taken from above.
Entry for GAGAAACC under PBM E-score: -0.0722
Entry for TAAACGTA under PBM E-score: 0.114
Entry for AGACGAGG under PBM E-score: -0.0995
Entry for CTCAATGA under PBM E-score: 0.0432
Entry for CCCCGTAG under PBM E-score: -0.0236

The listing continues:

Sequence	PBM E-score
GCTGGGCC	-0.363
CGGGAATC	0.0268
TATTCACA	0.196
CACTCGCG	-0.0249
TAGTTTGA	0.112
CTCGTACA	0.0276
CTGGTTAA	-0.0276
CCTCTTAG	0.147
ATGTGGAA	0.168
GGAATAAC	0.0722
CGGCCCAC	-0.238
GGCATCGA	-0.251
AATACACA	0.117
CCCTCCGC	-0.157
ACTTCAGA	-0.125
TAGCGCCA	-0.0732
GACAACCA	0.0774
CGGTCAAC	-0.0738
CAACTGAG	0.0925
TAGGGATA	0.0697
GAAGCCGA	-0.0222
AGACGCCG	-0.0115
CCAATCAG	-0.0545
AGCGGCAG	-0.0733
CGTCACTA	0.104

Sequence	PBM E-score
ACTAAGGC	0.0177
CCGTGTTA	0.0509
ACCTTTAG	-0.137
ATGTACTA	0.148
CCTGTTAA	0.031
ATAGAACA	0.117
AGAGTGTA	-0.147
AAAGGTCT	-0.0768
ACGCGGAT	0.0675
ATTTCCCG	0.258
TAGAGGAA	-0.105
AAAGCGCT	0.0805
ATCACGCA	-0.0636
GTAGCGGA	0.0555
CTGGTCGC	-0.152
CGTCGGGA	-0.0688
ATTGGCAA	0.238
GGTTACCA	0.0953
TCCATGAA	0.103
CGAGCAAC	0.0413
GCCCCCGC	-0.292
ACGGCCAT	-0.202
GACGCTGA	-0.0373
GCTTGACA	-0.0944
AACTGTGT	0.00851

Sequence	PBM E-score
AGCAAGCA	-0.178
ATTGTTAA	0.0779
CACCGCTA	-0.0378
CTGTTAAG	-0.14
GTCGATTA	0.187
TCACGTAA	0.322
CGGCCAAA	-0.0777
GTCCATCA	0.0496
AGGTCCCG	0.0408
GTAAGGCA	0.00329
CACGGCTG	-0.145
CCCCCGGC	-0.366
ATATGGAG	0.111
GATCCCGA	-0.00094
CAGCCCCC	-0.441
CTGGGAGA	-0.0758
AGCTGGGG	-0.0511
GTACCGAA	-0.193
ACGAATTC	-0.0242
CGCACCAA	0.0795
GGGATCGA	-0.0326
ACCGTACC	-0.114
AAAAACAA	0.218
CGTCCTCA	-0.104
GGCTGAGA	-0.0327

Already shown: an excerpt of the list.
Sequence	PBM E-score
GATCCCGA	-0.00094
CAGCCCCC	-0.441
CTGGGAGA	-0.0758
AGCTGGGG	-0.0511

Next entries:

Sequence	PBM E-score
ATGCAGAG	-0.141
ATGGCGAA	0.231
GACAACTC	0.0328
ACCCCCTC	-0.445
CCATGGTC	-0.208
CCAGTTCA	0.0121
GAGGATAC	-0.183
CCTCAGTA	-0.159
AATCATTA	0.127
CAGGTGGC	-0.168
ATAGTTGC	0.272
ACCAGCCG	-0.184
ACTTGAAT	0.133
CGACCTCC	0.0447
CGTAGTCA	-0.015
TACAGAAA	0.178
ATAAGGCG	0.0483
GGAGGAAC	-0.235
CGGTCAAA	0.0732
AGCTCAAA	0.0832
CGACGTGA	-0.00516
ATCTCAAG	0.0932
AGGCTTGA	-0.0503
CAAGACTC	-0.00244
CATCGCGA	0.0822

Sequence	PBM E-score
CCGGTCAA	0.048
CGGCACCC	-0.138
AAAGGGGT	-0.18
CCTACTTC	-0.0498
ATATACAC	0.134
AACAACGG	-0.00693
CCGCTCAA	0.0248
AGACACTG	0.0311
GCCTCCGA	-0.231
ATCAGCGC	0.0878
CTGCATCA	0.0824
AGGGGAAG	-0.111
CCTGTGTC	-0.126
CGTAGTAC	-0.00669
GATCGGGA	-0.192
CTAAATAG	0.00124
AGTCAATG	0.00288
AAGAAAGA	0.0854
GGTGCCGA	-0.0421
CTAGAAAC	-0.0492
ACGGTCGG	-0.1
TGATCGCA	-0.143
AGCTCTCG	-0.178
ATCTGACA	0.0684
CCATGTAG	-0.00831

Sequence	PBM E-score
AATGCCCT	-0.0806
CAGGTAAC	-0.134
CGTATCTA	0.0495
ACAGAAAC	0.185
CGATATCG	0.114
CCCTCAAC	-0.188
AGATGAGG	-0.121
GAAACCTC	-0.0374
AGGAGTGC	-0.112
CCTCTCCG	-0.321
AGTGACAA	0.114
AGTAGGCA	0.187
ACGACTCG	-0.193
TCACGACA	-0.0753
TTACGAAA	0.218
AAGCCATT	0.0431
AACTATTG	0.194
AGTAACCC	0.133
CCCAAAGC	-0.127
ATAGCTTC	-0.0919
GATACTAC	0.161
CTCGGGTC	0.0273
AGGAGGCC	-0.298
GAATATAA	0.112
CGGTAATA	0.181

Sequence	PBM E-score
ACGTAGCA	0.0726
CGCCTTCC	-0.228
AAGGTTAA	0.0178
CGACGACC	0.01
ATTCCAAC	0.038
GCCCGGCC	-0.261
GGCGGATA	0.0745
AAACATTC	0.0964
AGCCGGAA	0.184
AGATTAGG	0.0277
CGTGCGTA	-0.137
GCCAACCA	-0.165
GAATGTAA	0.241
CGCGCTAA	0.225
CGAGCACA	0.148
AGCCTTTG	-0.169
AACGGAAT	0.212
ACAGCCGA	-0.165
CTAAGATC	0.103
